Screening data, single-dose tests

Protein sequences, listed by entry. Tags and fused reporters are not part of them. Residues count along the entry.
UniProt P9WPC5, whole entry: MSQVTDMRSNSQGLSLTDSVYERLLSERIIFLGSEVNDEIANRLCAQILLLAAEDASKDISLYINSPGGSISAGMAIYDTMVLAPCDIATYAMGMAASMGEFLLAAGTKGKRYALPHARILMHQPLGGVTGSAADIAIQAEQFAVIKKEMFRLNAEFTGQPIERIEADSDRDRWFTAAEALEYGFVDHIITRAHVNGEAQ
UniProt P9WPC3, whole entry partner: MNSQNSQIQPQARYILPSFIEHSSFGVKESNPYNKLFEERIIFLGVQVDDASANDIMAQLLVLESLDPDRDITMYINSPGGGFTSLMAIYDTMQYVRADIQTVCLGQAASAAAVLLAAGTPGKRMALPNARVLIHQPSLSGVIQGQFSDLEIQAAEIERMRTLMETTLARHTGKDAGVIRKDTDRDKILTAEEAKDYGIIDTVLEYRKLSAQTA
UniProt P9WNZ1, whole entry: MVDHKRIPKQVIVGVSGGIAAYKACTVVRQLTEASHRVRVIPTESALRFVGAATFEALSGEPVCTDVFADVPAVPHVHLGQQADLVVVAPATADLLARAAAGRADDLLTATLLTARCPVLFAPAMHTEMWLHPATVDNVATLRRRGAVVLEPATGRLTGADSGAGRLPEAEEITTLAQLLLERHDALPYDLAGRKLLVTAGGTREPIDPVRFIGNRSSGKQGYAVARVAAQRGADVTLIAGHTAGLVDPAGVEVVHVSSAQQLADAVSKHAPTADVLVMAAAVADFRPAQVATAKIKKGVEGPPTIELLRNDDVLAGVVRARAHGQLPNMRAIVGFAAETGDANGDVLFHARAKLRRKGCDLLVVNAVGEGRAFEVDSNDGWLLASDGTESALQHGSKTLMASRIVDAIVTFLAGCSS
UniProt Q8IDJ8, 1-583: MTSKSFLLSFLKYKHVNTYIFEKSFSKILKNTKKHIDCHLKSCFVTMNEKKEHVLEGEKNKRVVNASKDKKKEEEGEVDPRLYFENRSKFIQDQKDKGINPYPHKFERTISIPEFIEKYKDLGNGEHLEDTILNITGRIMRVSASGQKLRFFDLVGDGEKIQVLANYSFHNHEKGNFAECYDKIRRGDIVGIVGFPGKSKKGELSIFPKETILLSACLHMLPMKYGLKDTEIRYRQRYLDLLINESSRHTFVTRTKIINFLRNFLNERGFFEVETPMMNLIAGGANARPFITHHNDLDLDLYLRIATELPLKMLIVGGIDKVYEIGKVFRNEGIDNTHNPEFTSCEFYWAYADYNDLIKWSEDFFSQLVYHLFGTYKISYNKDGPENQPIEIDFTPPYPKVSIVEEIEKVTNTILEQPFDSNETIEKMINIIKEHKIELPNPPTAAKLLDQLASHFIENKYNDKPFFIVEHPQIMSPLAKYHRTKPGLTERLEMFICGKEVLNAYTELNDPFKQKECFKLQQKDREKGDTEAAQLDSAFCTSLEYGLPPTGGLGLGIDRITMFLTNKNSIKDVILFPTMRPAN

ClpP1P2: 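Protease assay of ClpP1P2, read by the AMC dye that it sets free. Target: ClpP1P2, Mycobacterium tuberculosis (UniProt P9WPC5 and UniProt P9WPC3). Concentration: 50 µM. Direction is inferred from only a few compounds that gave an IC50; most scored high, so higher reads as stronger inhibition. Most other retested compounds had strongly negative values. Of about 69,000 compounds tested this way, about 10 (0.015%) reached 50% or more in at least one test.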
CoaBC: 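Enzyme assay of CoaBC with a phosphate dye (Biomol Green) read at 650 nm. Target: Coenzyme A biosynthesis protein CoaBC, Mycobacterium tuberculosis (UniProt P9WNZ1). Compounds at 30 µM. Higher reads as stronger inhibition, judged from the few compounds that gave an IC50. Most strong results did not repeat in a second test. Of about 67,000 compounds tested this way, about 40 (0.06%) reached 50% or more in at least one test.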
PfKRS1: 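Lysine-tRNA ligase, Plasmodium falciparum 3D7 (UniProt Q8IDJ8). Enzyme assay of the cytosolic lysyl-tRNA synthetase in 384-well plates, read by luminescence. Concentration: 30 µM. Direction is inferred from only a few compounds that gave an IC50; most scored high, so higher reads as stronger inhibition. Size under these conditions: about 69,000 compounds, about 49 of them at 50% or above in at least one test.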

Results are given as percent effect.
The controls that fix the scale are not given in the record; negative values are as filed.
This is an unselected part of the compounds tested.
Two or more numbers in one place are separate tests of the same structure; such repeats can differ widely.

Cc1nccc([C@H]2C[C@@H]3CCN(S(=O)(=O)N(C)C)C[C@H]3O2)n1 read ClpP1P2: 0.3369%; CoaBC: -18.06%; PfKRS1: 8.925%. For CC(=O)Nc1ncc(-c2ccc(C)cc2)[nH]1 the result was ClpP1P2: -12.24%; CoaBC: -2.133%; PfKRS1: 2.828%. For N#Cc1c(F)cccc1Nc1cnn(CC(N)=O)c1 the result was ClpP1P2: 1.749%; CoaBC: 2.177%; PfKRS1: 5.798%. For Cc1cccc(SC2CCN(C(=O)CCNS(C)(=O)=O)CC2)c1 the result was ClpP1P2: -3.07%; CoaBC: 1.337%; PfKRS1: 10.35%. Result for Cc1ccc(-n2nc(C)c3c2NC(=O)CC3c2cnc(N)s2)cc1 (centres unmarked) was ClpP1P2: 4.411%; CoaBC: -3.306%; PfKRS1: 5.271%.

Result for CC(Cn1cccn1)NC(=O)Cc1csc(C(C)C)n1 (centres unmarked) was ClpP1P2: -94.31%; CoaBC: 6.266%; PfKRS1: 2.354%. Result for Cc1cc(C)n(CC(=O)N2C[C@@H]3CC[C@H](C2)N(CC2CCC2)C3)c(=O)n1 was ClpP1P2: -90.21%; CoaBC: 7.702%; PfKRS1: -2.183%. Result for CCNC(=O)c1sccc1N(C)S(=O)(=O)c1ccc(Cl)cc1 was ClpP1P2: 7.61%; CoaBC: 3.671%; PfKRS1: -5.217%. CCc1ccc(C(=O)N2CCCC(c3noc(CC)n3)C2)o1 (centres unmarked) gave ClpP1P2: 7.948%; CoaBC: 5.897%; PfKRS1: 1.017%. For CC1(c2nccs2)CCN(C(=O)CC2CCOCC2)CC1 the result was ClpP1P2: -4.792%; CoaBC: 4.932%; PfKRS1: 0.9198%.

CN1CCN([C@@H]2CCN(CC3CCOC3)[C@H]2Cc2cnn(C)c2)CC1 (some centres unmarked) read ClpP1P2: 6.399%; CoaBC: 1.018%; PfKRS1: 3.536%. For CCCn1cc(C(=O)NCCS(N)(=O)=O)c2ccccc21 the result was ClpP1P2: 7.492%; CoaBC: 6.087%; PfKRS1: -6.432%. For c1cc(CN2CCC3(CC2)COC(COCC2CC2)C3)cs1 (centres unmarked) the result was ClpP1P2: 3.421%; CoaBC: 4.762%; PfKRS1: 3.863%. For O=C(NC[C@H]1OC[C@@H](NCc2ccc(F)cc2)[C@@H]1O)N1CCOCC1 the result was ClpP1P2: 1.672%; CoaBC: 5.291% and 22.3%; PfKRS1: 7.188%. For CCOc1ncccc1NC(=O)c1cc(C)c(C)s1 the result was ClpP1P2: 1.156%; CoaBC: 4.219%; PfKRS1: 1.677%.

Result for CC(C)(C)NC(=O)C[C@@H]1CCNC[C@@H]1Cc1cc(C(C)(C)C)on1 was ClpP1P2: -7.192%; CoaBC: -16.13%; PfKRS1: 6.168%. O=C(NCc1cscn1)NC1CCN(c2ncccc2Cl)C1 (centres unmarked) read ClpP1P2: -6.819%; CoaBC: 0.4914%; PfKRS1: 0.8228%. With Cc1cccc2sc(NC(=O)CN3CCCC4(CC3)CNC(=O)O4)nc12 (centres unmarked) the screen gave ClpP1P2: -5.103%; CoaBC: -6.198%; PfKRS1: 5.848%. Cn1nc(CN2CCCC2)c2c1CN(C(=O)c1ccc[nH]1)CC2 read ClpP1P2: -4.078%; CoaBC: -35.42%; PfKRS1: -3.252%. With Fc1ccccc1CC1CCN(Cc2nccs2)CC1 the screen gave ClpP1P2: 1.536%; CoaBC: -4.091%; PfKRS1: 1.801%.

The last 2 entries again:

compound,ClpP1P2,CoaBC,PfKRS1
Cn1nc(CN2CCCC2)c2c1CN(C(=O)c1ccc[nH]1)CC2,-4.078,-35.42,-3.252
Fc1ccccc1CC1CCN(Cc2nccs2)CC1,1.536,-4.091,1.801

Measurements from “University of Dundee, Small-Polar-MMV Screening Library” (2021), ChEMBL document CHEMBL3988442.